The record followed here is ChEMBL document CHEMBL5247626, “In vitro and in vivo biological evaluation of newly synthesized multi-target 20(R)-panaxadiol derivatives for treating Alzheimer's disease” (Eur J Med Chem, 2022).

Molecules are shown by their SMILES.

The nature of this data set: Permeability of the compound incubated for 4 hrs by PAMPA-BBB assay based HPLC analysis. (In general: In PAMPA a lipid-coated filter parts donor from acceptor wells.)

The compound `COc1cc2c(cc1OC)C(=O)C(CC1CCN(Cc3ccccc3)CC1)C2` (stereo unspecified) [DONEPEZIL] gave a Papp at 4 h of 303 nm/s.

Broadly, the Papp is a coefficient for how fast a substance crosses the barrier. Lower therefore signals slow passage.
